Test results published in patent publication US5795958A, “Library of glyco-peptides useful for identification of cell adhesion inhibitors” (Glycomed Corporation, priority 1996, dated 1998).
Not every detail of the peptide structures is certain; ends, links or a residue may be inferred.

Columns and labels:
[1] = biological target: T1, E-selectin (Homo sapiens, UniProt P16581); test: Competitive inhibition ELISA: binding of E-selectin to 2,3 sLex glycolipid; settings: FIG. 5; ELISA, 2,3 sLex glycolipid 25 picomoles per well
T1 sequence (P16581 22-610): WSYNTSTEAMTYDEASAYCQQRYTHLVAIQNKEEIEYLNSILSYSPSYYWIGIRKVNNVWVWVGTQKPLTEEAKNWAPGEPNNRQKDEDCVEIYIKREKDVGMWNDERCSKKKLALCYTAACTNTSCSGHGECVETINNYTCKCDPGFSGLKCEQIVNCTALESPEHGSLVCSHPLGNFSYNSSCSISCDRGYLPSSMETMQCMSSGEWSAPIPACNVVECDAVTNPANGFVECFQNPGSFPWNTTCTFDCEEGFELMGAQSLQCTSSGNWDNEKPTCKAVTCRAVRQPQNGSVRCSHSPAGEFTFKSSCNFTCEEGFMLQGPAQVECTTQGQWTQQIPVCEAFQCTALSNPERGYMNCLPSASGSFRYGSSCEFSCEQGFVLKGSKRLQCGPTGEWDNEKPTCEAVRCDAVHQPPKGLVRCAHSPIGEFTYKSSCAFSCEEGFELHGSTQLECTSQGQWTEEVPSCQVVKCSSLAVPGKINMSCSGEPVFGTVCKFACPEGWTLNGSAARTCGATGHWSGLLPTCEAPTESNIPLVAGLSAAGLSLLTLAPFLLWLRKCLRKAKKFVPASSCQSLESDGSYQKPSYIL

[2] = system: L-selectin; test: Competitive inhibition ELISA: binding of L-selectin to 2,3 sLex glycolipid; settings: at 2 and 4 mm; FIG. 5; comparison of A with B

Compound	inhibition of binding of E-selectin to 2,3 sLex glycolipid [1]	inhibition of binding of L-selectin to 2,3 sLex [2]
CC(=O)N[C@@H](CO[C@@H]1O[C@@H](C)[C@@H](O)[C@@H](O)[C@@H]1O)C(=O)N[C@@H](C)C(=O)N[C@@H](CC(=O)O)C(N)=O [A, Ac--Ser(α-L-Fuc)-Ala--Asp--NH2]	little effect	to a greater extent than does Ac-Ser(β-L-Fuc)-Ala-Asp-NH2
CC(=O)N[C@@H](CO[C@H]1O[C@@H](C)[C@@H](O)[C@@H](O)[C@@H]1O)C(=O)N[C@@H](C)C(=O)N[C@@H](CC(=O)O)C(N)=O [B, Ac--Ser(β-L-Fuc)-Ala--Asp--NH2]	little effect	
